# From PubChem BioAssay AID504444 (National Center for Advancing Translational Sciences (NCATS), 2011)
# Among all 360,000 compounds or so, about 7,500 (2.1%) were called active. The inconclusive results got no clear call from the source; some entries with a clear call stand among them for comparison. The call rests on the fitted dose curve; in most records, active means well fitted inhibition curve with a large enough effect; inconclusive means small, poorly fitted or top-dose-only effect, or effect the other way; inactive means flat fitted curve, though single readings scatter. A potency beside an inconclusive call is a rough fit, not a confirmed value.
# Experiment: Nrf2 qHTS screen for inhibitors; further: nearly all actives have a fitted effect of over 60% in size
# Details: A549 ARE-Fluc reporter, luciferase luminescence, 18-24 h; series mostly up to 46 µM
# Summary of the method: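 In this cell-based qHTS, ARE-driven firefly luciferase in A549 cells reports Nrf2 activity; the luminescent signal after BugLite lysis is the measured value, with a prior CellTiter-Fluor read for cell health.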
# Potency means the concentration at half of the fitted maximal effect.
row,SMILES,Potency
1,COc1ccc(NC(=O)C2CCCN(S(=O)(=O)c3ccccc3)C2)c(OC)c1 (configuration not stated),"inconclusive: 32.6 µM [falling, single point]"
2,CCn1c(C(=O)NCCc2ccc(OC)c(OC)c2)cc2sc(Cl)cc21,"inconclusive: 32.6 µM [falling, single point]"
3,Cn1c(=O)c2c(nc(NCCO)n2CCc2ccccc2)n(C)c1=O,"inconclusive: 14.6 µM [falling, partial curve]"
4,COc1cc([N+](=O)[O-])cc(/C=N/NC(=O)c2cccnc2)c1O,"inconclusive: 10.3 µM [falling, partial curve, poor fit]"
5,COc1ccccc1C(=O)Nc1ccc2ccccc2c1,"inconclusive: 18.4 µM [activator, partial curve]"
6,O=C(/C=C/c1ccc(F)cc1)N1CCCc2ccccc21,"inconclusive: 23.1 µM [activator, partial curve, poor fit]"
7,Cc1cccc(NC(=S)NCc2ccccn2)c1,"inconclusive: 14.6 µM [activator, partial curve, poor fit]"
8,Cc1onc(-c2c(F)cccc2Cl)c1C(=O)Nc1nnc(C2CC2)s1,inactive
9,CC(=O)Nc1ccc(S(=O)(=O)Oc2ccccc2N2C(=O)C3C4CCC(C4)C3C2=O)cc1 (configuration not stated),"inconclusive: 16.4 µM [activator, single point]"
10,Clc1ccccc1-c1ncc(-c2ccccc2)o1,"inconclusive: 18.4 µM [activator, partial curve, poor fit]"
11,CC(C)c1nnc(NC(=O)C2CCN(c3nc4ccccc4s3)CC2)s1,"inconclusive: 18.4 µM [falling, single point]"
12,CCC(=O)NC(=S)Nc1ccc(NC(=O)COc2ccc(Cl)cc2Cl)cc1,inactive
13,c1ccc(CNc2nc3c(-c4ccccc4)nnn3c3ccccc23)cc1,"inconclusive: 4.11 µM [activator, single point]"
14,COc1ccc(Nc2cccc(Cl)c2)c(C(=O)O)c1,"inconclusive: 18.4 µM [activator, single point]"
15,Cc1ccc(-n2c(SCC(=O)Nc3ccc4c(c3)OCO4)nnc2-c2ccoc2C)cc1,"inconclusive: 29.1 µM [falling, single point]"
16,CCOc1ccc(-c2cn3ccccc3n2)cc1,"inconclusive: 0.517 µM [activator, full curve]"
17,Cc1cccc(C)c1OCCn1c(C2CC(=O)N(c3cccc(Cl)c3)C2)nc2ccccc21 (configuration not stated),active: 20.6 µM
18,Cc1ccc2nc(-c3ccc(NC(=O)CNC4CC4)cc3)sc2c1,"inconclusive: 6.51 µM [activator, full curve]"
19,COc1cccc(NC(=O)C2CCCN(S(=O)(=O)c3c(C)nn(C)c3C)C2)c1 (configuration not stated),"inconclusive: 29.1 µM [falling, single point]"
20,CC(=O)c1c(C)[nH]c(C(=O)Nc2ccc(Cl)cc2)c1C,"inconclusive: 23.1 µM [activator, partial curve]"
21,O=C(CN1CCOCC1)Nc1ccc2c(c1)OCCO2,"inconclusive: 16.4 µM [activator, partial curve]"
22,COc1ccccc1CNC(=O)C1CCCN(S(=O)(=O)c2cccs2)C1 (configuration not stated),"inconclusive: 10.3 µM [falling, partial curve, poor fit]"
23,[O-][n+]1ccc(OCc2ccccc2)cc1,"inconclusive: 25.9 µM [falling, single point]"

row,SMILES,Potency
1,CCOc1ccc(NC(=O)N2CCN(c3nc4ccccc4s3)CC2)cc1,"inconclusive: 4.11 µM [falling, full curve]"
2,COc1ccc(-c2nc(CS(=O)CC(=O)NCc3ccco3)c(C)o2)cc1 (configuration not stated),"inconclusive: 6.51 µM [falling, partial curve, poor fit]"
3,COc1ccc(CN(C(=O)/C=C/c2ccco2)C2CCS(=O)(=O)C2)cc1OC (configuration not stated),inactive
4,Cc1cccc2sc(NNC(=O)c3ccc(S(=O)(=O)N4CC(C)CC(C)C4)cc3)nc12 (configuration not stated),"inconclusive: 2.31 µM [falling, partial curve, poor fit]"
5,COc1ccc(-c2ccc(F)cc2)cc1C1C2C=CCC(C)C2C(=O)N1Cc1ccccc1 (configuration not stated),"inconclusive: 20.6 µM [falling, single point]"
6,Cn1cccc1/C=C1\SC(=S)N(NC(=O)c2ccccc2O)C1=O,inactive
7,CCN(CC)C(=O)CCSc1nnc(-c2ccco2)o1,"inconclusive: 18.4 µM [activator, partial curve, poor fit]"
8,COc1ccccc1CC(=O)N(Cc1ccccc1)c1ccc(C)cc1,"inconclusive: 16.4 µM [falling, single point]"
9,COCCCC1CCN(C(=O)c2cc(COc3ccc(C)nc3)on2)CC1,"inconclusive: 29.1 µM [falling, single point]"
10,CN(CC(=O)Nc1cccc(F)c1)CC(=O)Nc1cccc(S(=O)(=O)N2CCCCCC2)c1,"inconclusive: 29.1 µM [falling, single point]"
11,COc1ccc(Cl)cc1NC(=O)c1cnccn1,inactive
12,COc1cc(CC(=O)Nc2nc(-c3ccc(F)c(F)c3)cs2)cc(OC)c1OC,active: 11.6 µM
13,COc1cccc(-c2nn(Cc3ccccc3)cc2CO)c1,"inconclusive: 11.6 µM [activator, partial curve, poor fit]"
14,CCc1ccc(NCc2cc3cc4c(cc3n(CC(=O)Nc3ccc(C)cc3)c2=O)OCO4)cc1,"inconclusive: 5.17 µM [activator, full curve]"
15,CC(Sc1nn(-c2ccc(F)cc2)c(=S)s1)C(=O)c1c(N)n(C)c(=O)n(C)c1=O (configuration not stated),"inconclusive: 23.1 µM [falling, single point]"
16,CS(=O)(=O)C1=NSC2=NC(=O)/C(=C\c3cccn3-c3ccc(Cl)cc3)C(=N)N21,inactive
17,CCOc1ccc(NC(=O)C2CCCN(S(=O)(=O)c3cccc4nonc34)C2)cc1 (configuration not stated),inactive
18,Cc1ccc(Nc2c(-c3cccs3)nc3nc(C)cc(C)n23)cc1,"inconclusive: 29.1 µM [falling, partial curve, poor fit]"
19,Cc1oc2ncnc(N3CCCCC3)c2c1C(=O)N1CCN(c2cccc(C(F)(F)F)c2)CC1,inactive
20,COCCNC(=O)c1ccc(-c2csc(C)n2)cc1,"inconclusive: 6.51 µM [activator, partial curve, poor fit]"
21,O=C(NCc1ccccn1)Nc1ccc(Br)cc1Cl,inactive
22,CC1(C(=O)N/N=C/c2ccc([N+](=O)[O-])o2)CC1(Br)Br (configuration not stated),"inconclusive: 23.1 µM [falling, single point]"
23,COC(=O)C1(C)NC(c2ccc(Cl)cc2)C2C(=O)N(c3ccccc3)C(=O)C21 (configuration not stated),"inconclusive: 5.17 µM [activator, single point]"

row,SMILES,Potency
1,Cc1nn(Cc2ccc(F)cc2)c2sc(C(=O)Nc3ccc(N4CCOCC4)cc3N3CCOCC3)cc12,active: 14.6 µM
2,NC(N)=NC(N)=NCCc1ccccc1,active: 13 µM
3,N#Cc1c(NC(NC(=O)c2ccco2)C(=O)c2ccccc2)sc2c1CCCC2 (configuration not stated),inactive
4,CC1=CC(C)(C)NC(=S)N1c1ccc(C)c(C)c1,"inconclusive: 9.2 µM [falling, partial curve, poor fit]"
5,Nc1nc(-c2ccc(S(=O)(=O)N3CCCCC3)cc2)cs1,"inconclusive: 18.4 µM [falling, single point]"
6,COc1ccc(-c2csc(N3CCN(C(=O)c4ccccc4)CC3)n2)cc1,active: 13 µM
7,O=C(O)Cn1cnc2c(OCc3ccccc3)ncnc21,inactive
8,CCOc1ccc(CCNC(=O)c2cn(CC)c3ccc(S(=O)(=O)N4CCc5ccccc5C4)cc3c2=O)cc1OCC,"inconclusive: 8.2 µM [activator, partial curve]"
9,COC(=O)c1cc(=O)n(Cc2cccs2)c(=Nc2ccccc2)s1,"inconclusive: 0.0041 µM [falling, full curve, poor fit]"
10,CCn1c2ccccc2c2cc(CN3CCN(Cc4ccccc4F)CC3)ccc21,inactive
11,CCN1CCc2nc(NC(=O)c3ccc4c(c3)OCCO4)sc2C1,"inconclusive: 20.6 µM [activator, single point]"
12,CC(=O)c1cn(CC(=O)Nc2ccccc2C)c2ccccc12,active: 9.2 µM
13,Cn1nnc2c(N3CCN(Cc4ccccc4)CC3)ncnc21,"inconclusive: 10.3 µM [falling, partial curve, poor fit]"
14,CCS(=O)(=O)c1ccc2oc(Nc3ccc(C(C)C)cc3)nc2c1,"inconclusive: 0.0184 µM [activator, full curve]"
15,COc1ccc(OC)c(NC(=O)c2nnn(CC(=O)Nc3ccc(C(C)C)cc3)c2N)c1,"inconclusive: 14.6 µM [falling, single point]"
16,COc1ccccc1N1CCN(S(=O)(=O)c2ccc(Cl)s2)CC1,"inconclusive: 29.1 µM [falling, single point]"
17,O=C(NCC(c1ccco1)N1CCCCC1)c1cccc(S(=O)(=O)Nc2ccccc2Cl)c1 (configuration not stated),"inconclusive: 13 µM [falling, partial curve, poor fit]"
18,COc1ccc(C2=NN(C(=O)CSc3nnnn3C)C(c3ccco3)C2)cc1 (configuration not stated),"inconclusive: 18.4 µM [falling, partial curve, poor fit]"
19,c1ccc(-c2noc(CSc3nnc(Cc4cccs4)n3-c3ccccc3)n2)cc1,"inconclusive: 20.6 µM [falling, partial curve]"
20,O=C1NC(c2ccccc2O)Nc2ccccc21 (configuration not stated),"inconclusive: 0.291 µM [falling, full curve, poor fit]"
21,CN(Cc1ccccc1)C(=O)c1ccc(CSc2nc3cccnc3n2Cc2ccccc2)cc1,active: 20.6 µM

# Shown tab-delimited: part of the list above
row	SMILES	Potency
13	Cn1nnc2c(N3CCN(Cc4ccccc4)CC3)ncnc21	inconclusive: 10.3 µM [falling, partial curve, poor fit]
14	CCS(=O)(=O)c1ccc2oc(Nc3ccc(C(C)C)cc3)nc2c1	inconclusive: 0.0184 µM [activator, full curve]

# Reformatted as tab-separated lines: two of the compounds above.
row	SMILES	Potency
9	COC(=O)c1cc(=O)n(Cc2cccs2)c(=Nc2ccccc2)s1	inconclusive: 0.0041 µM [falling, full curve, poor fit]
10	CCn1c2ccccc2c2cc(CN3CCN(Cc4ccccc4F)CC3)ccc21	inactive

# Some values from the entries so far.
# Value for `COc1cccc(NC(=O)C2CCCN(S(=O)(=O)c3c(C)nn(C)c3C)C2)c1` (configuration not stated) under Potency: inconclusive: 29.1 µM [falling, single point]
# Value for `CN(CC(=O)Nc1cccc(F)c1)CC(=O)Nc1cccc(S(=O)(=O)N2CCCCCC2)c1` under Potency: inconclusive: 29.1 µM [falling, single point]
